According to patent publication US20250188133A1, “CHIMERIC BACTERIOCINS AND METHOD FOR THE CONTROL OF PSEUDOMONAS” (priority 2022, published 2025):
Some entries share one result that the patent states for a list of compounds.

B1: S5-PmnH (protein)
chain: MSNDNEVPGSMVIVAQGPDDQYAYEVPPIDSAAVAGNMFGDLIQREIYLQKNIYYPVRSIFEQGTKEKKEINKKVSDQVDGLLKQITQGKREATRQERVDVMSAVLHKMESDLEGYKKTFTKGPFIDYEKQSSLSIYEAWVKIWEKNSWEERKKYPFQQLVRDELERAVAYYKQDSLSEAVKVLRQELNKQKALKEKEDLSQLERDYRTRKANLEMKVQSELDQAGSALPPLVSPTPEQWLERATRLVTQAIADKKQLQTTNNTLIKNSPTPLEKQKAIYNGELLVDEIASLQARLVKLNAETTRRRTEKELTPDEKAAYTDAVSFVSTANEQMLQKYGANLSKVAQDMQAEIAGKKVRSYAEAMATFEKISANPAMKLNALDTQAVVDALNALDKASFADNITRLGKAFGVVGKVVQAEAIREKTVSGFQTGDWKPLMLELEAMAVGTGAGILLATSMAFFFPVFASAAAGVVVVALMMAATAAYFDAAKVDEINNLILN
modifications: Chimeric S5-PmnH

Test system: P. aeruginosa PAO1
Experiment: murine keratitis model, invasive strain (C57BL/6 mice)
Assay type: in vivo
Settings: several treated eyes, from 1 dpi to the end of experiment; scale 0 to +4
Description: The inbred mice of C57BL/6 strain of both sexes in equivalent numbers were used for the research. 2-6 months old, adult female and adult male mice were purchased from the Vilnius University vivarium of laboratory animals. The animals throughout the period of the experiment were given standard chow and drinking water ad libitum. Animals were housed in the individual plastic cages in a 12 h light/dark cycle at 21-23° C. All regulated procedures on living animals were approved by The Lithuanian Ethics Committee of Biomedical Research (Protocol no. B1-442) and were carried out in accordance with the European Union legislation of OECD (directive 2010/63/EU). The experiments were carried out in Biological research center of Lithuanian University of Health Sciences.
For P. aeruginosa infection and keratitis induction the mice were anesthetized by Ketamine and Xylazine 90:9 mg/kg intraperitoneal injection. The cornea of the left eye of each mouse was visualized under a stereoscopic microscope, and three 1 mm scratches were made using a sterile 25 gauge needle. A 10 μL aliquot containing 4×10^6 cells of P. aeruginosa ATCC 19660 (cytotoxic strain) or PAO1 ATCC 15692 (invasive strain) was applied to the corneal surface. Depending on the experiment, the treatment was started 30 min or 6 h post infection. […]

| Molecule | clinical scores |
| --- | --- |
| NC[C@H]1O[C@H](O[C@H]2[C@H](O)[C@@H](O[C@H]3O[C@H](CO)[C@@H](O)[C@H](N)[C@H]3O)[C@H](N)C[C@@H]2N)[C@H](N)C[C@@H]1O [tobramycin, reference compound] | 1-2 |
| B1 | 1-2 |
